Laboratory results from US20240199624A1, “COMPOUNDS, COMPOSITIONS, AND METHODS” (CHDI Foundation, Inc., priority 2022, published 2024).
For at least one compound, name, drawing or mass did not settle the structure.

Experiment: P33 SPA counter assay (absence of enzyme)
Settings: interference with detection system
Method: P33 SPA counter assay: This assay was used in the absence of enzyme to determine whether the test compound interferes with the detection system. Otherwise, the same protocol and assay buffer as in the main SPA assay were applied (25 mM HEPES pH=7.5, 150 mM KCl, 2 mM MgCl2, 2 mM GSH, 0.01% Tween-20) and instead of enzyme addition, assay buffer was added. Hydrolysis of substrate (γ-[^33P]-ATP, 0.1 nM; Hartmann Analytic, FF-301; and cold ATP, 10 μM) to a similar level as under enzymatic conditions was achieved by incubation at 50° C. for 4 days. Decay of [^33P] with a half-life of 25.4 days was corrected by increasing the concentration of the labelled nucleotide with the appropriate factor; all steps with radioactive ATP were conducted behind appropriate shielding. After addition of pre-treated ATP substrate (10 μL) to the compounds and addition of buffer (10 μL, instead of enzyme), 20 μL of a 1:2 mix of ammonium molybdate (20 mg/mL Ammonium molybdate in 2.4M HCl) and SPA beads (ProteinA SPA beads from Perkin Elmer Cat #RPNQ0019 at 7.5 mg/mL+1% azide) was added per well and incubated at RT for 2 min. Then, 40 μL of 7 M CsCl and 0.1 M citrate was added per well and incubated for 1 h at room temperature before measuring on the MicroBeta (top read mode, 1 min per well). […]

Question: For `CCN1CCN(c2nc(Nc3ccc(F)c(C)c3)c3nccnc3n2)CC1` [Compound 3, 2-(4-ethylpiperazin-1-yl)-N-(4-fluoro-3-methyl-phenyl)pteridin-4-amine], which IC50 is on record?
Answer: The IC50 was over 200 µM.
